According to paper PMC11809008:
These are yes or no findings as the source states them, for the method shown. In cells and extracts the contact can be indirect. Some binding calls cover weakened binding; strength is not graded here.

Sequences of proteins named here, by UniProt entry; tags and fusion partners are left off.
UniProt P0DMW0: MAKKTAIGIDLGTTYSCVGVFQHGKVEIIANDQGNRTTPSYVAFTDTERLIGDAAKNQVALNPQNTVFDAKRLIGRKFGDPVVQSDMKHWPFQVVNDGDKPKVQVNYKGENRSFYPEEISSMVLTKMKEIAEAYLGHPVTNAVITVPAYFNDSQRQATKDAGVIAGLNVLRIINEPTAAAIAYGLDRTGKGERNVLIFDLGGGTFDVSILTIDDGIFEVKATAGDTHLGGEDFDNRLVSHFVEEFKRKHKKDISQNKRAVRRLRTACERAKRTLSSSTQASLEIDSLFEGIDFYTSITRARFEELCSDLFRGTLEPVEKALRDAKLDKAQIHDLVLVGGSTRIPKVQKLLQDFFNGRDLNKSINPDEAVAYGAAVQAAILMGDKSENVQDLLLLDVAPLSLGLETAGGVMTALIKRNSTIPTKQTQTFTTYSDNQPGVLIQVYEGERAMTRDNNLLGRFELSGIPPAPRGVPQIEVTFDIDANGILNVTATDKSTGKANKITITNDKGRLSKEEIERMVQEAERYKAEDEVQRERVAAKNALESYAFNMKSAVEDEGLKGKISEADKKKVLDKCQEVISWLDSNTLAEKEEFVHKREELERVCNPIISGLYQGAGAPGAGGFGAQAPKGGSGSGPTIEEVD

Biological target: Heat shock protein family A member 1A (HSPA1A) (rat (endogenous in spinal cord tissue)) (UniProt P0DMW0)
Test: co-IP; rat spinal cord tissue lysed in RIPA buffer with PMSF, sonicated; protein A/G magnetic beads with the protein-antibody solution, 4 °C, 12 h; immunoblotting; precipitating antibody not stated

binding: binds
B1: Dual specificity phosphatase 1 (DUSP1) (protein, UniProt Q64623 1-367)
chain: MVMEVGILDAGGLRALLRERAAQCLLLDCRSFFAFNAGHIVGSVNVRFSTIVRRRAKGAMGLEHIVPNTELRGRLLAGAYHAVVLLDERSAALDGAKRDGTLALAAGALCREARSTQVFFLQGGYEAFSASCPELCSKQSTPMGLSLPLSTSVPDSAESGCSSCSTPLYDQGGPVEILSFLYLGSAYHASRKDMLDALGITALINVSANCPNHFEGHYQYKSIPVEDNHKADISSWFNEAIDFIDSIKDAGGRVFVHCQAGISRSATICLAYLMRTNRVKLDEAFEFVKQRRSIISPNFSFMGQLLQFESQVLAPHCSAEAGSPAMAVLDRGTSTTTVFNFPVSIPVHPTNSALNYLQSPITTSPSC
